Experimental data published in publication PMC9798977.
These are yes or no findings as the source states them, for the method shown. In cells and extracts the contact can be indirect. Some results given as binding are weak or reduced against the parent protein; the word gives no strength.

Amino acid sequences for entries named in this document (tags omitted).
UniProt P83916: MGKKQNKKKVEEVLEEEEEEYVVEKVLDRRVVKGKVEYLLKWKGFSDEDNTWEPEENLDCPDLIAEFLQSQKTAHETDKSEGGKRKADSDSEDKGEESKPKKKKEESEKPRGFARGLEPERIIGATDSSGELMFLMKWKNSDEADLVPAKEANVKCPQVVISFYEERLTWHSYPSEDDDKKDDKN
UniProt Q9H5I1: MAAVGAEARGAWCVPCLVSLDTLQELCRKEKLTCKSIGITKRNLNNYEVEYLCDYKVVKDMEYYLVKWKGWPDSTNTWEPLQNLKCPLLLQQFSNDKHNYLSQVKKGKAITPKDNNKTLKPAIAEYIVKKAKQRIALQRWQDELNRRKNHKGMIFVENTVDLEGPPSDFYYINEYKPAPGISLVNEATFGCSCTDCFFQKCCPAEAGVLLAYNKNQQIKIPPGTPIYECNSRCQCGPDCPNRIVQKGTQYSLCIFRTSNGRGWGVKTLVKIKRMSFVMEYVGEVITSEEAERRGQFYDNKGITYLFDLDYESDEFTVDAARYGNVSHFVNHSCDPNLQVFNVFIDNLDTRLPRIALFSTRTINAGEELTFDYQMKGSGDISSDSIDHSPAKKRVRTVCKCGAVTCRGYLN

Molecular target: FLAG-CBX1 (wild type) (human) (UniProt P83916)
Assay: co-IP; anti-FLAG immunoprecipitation from lysates of SUNE1, HONE1 or HK1 cells expressing FLAG-CBX1, overnight at 4 °C, Protein A/G magnetic beads, western blot; anti-IgG as control; also after treatment of the cells with DMSO, TBB (75 x 10^-6 M, 6 h) or hesperadin (500 x 10^-9 M, 1 h)

Molecule	binding
SUV39H2 (from UniProt Q9H5I1 1-410) (enzyme)	binds
SUV39H1 (enzyme, UniProt O43463 1-412) MAENLKGCSVCCKSSWNQLQDLCRLAKLSCPALGISKRNLYDFEVEYLCDYKKIREQEYYLVKWRGYPDSESTWEPRQNLKCVRILKQFHKDLERELLRRHHRSKTPRHLDPSLANYLVQKAKQRRALRRWEQELNAKRSHLGRITVENEVDLDGPPRAFVYINEYRVGEGITLNQVAVGCECQDCLWAPTGGCCPGASLHKFAYNDQGQVRLRAGLPIYECNSRCRCGYDCPNRVVQKGIRYDLCIFRTDDGRGWGVRTLEKIRKNSFVMEYVGEIITSEEAERRGQIYDRQGATYLFDLDYVEDVYTVDAAYYGNISHFVNHSCDPNLQVYNVFIDNLDERLPRIAFFATRTIRAGEELTFDYNMQVDPVDMESTRMDSNFGLAGLPGSPKKRVRIECKCGTESCRKYLF	binds
